Results are given in words; binding and its absence hold for the method and conditions named. Some entries that bind do so weakly or less than the wild type.
Assays:
[1] = molecular target: T1, mouse DLL3 (KACTUS, DLL-MM103) (mouse, UniProt O88516 33-490, limits assumed); experiment: SPR (Biacore 8K)
T1 construct: bought antigen of the Biacore assay; construct not described
T1 sequence (looked up): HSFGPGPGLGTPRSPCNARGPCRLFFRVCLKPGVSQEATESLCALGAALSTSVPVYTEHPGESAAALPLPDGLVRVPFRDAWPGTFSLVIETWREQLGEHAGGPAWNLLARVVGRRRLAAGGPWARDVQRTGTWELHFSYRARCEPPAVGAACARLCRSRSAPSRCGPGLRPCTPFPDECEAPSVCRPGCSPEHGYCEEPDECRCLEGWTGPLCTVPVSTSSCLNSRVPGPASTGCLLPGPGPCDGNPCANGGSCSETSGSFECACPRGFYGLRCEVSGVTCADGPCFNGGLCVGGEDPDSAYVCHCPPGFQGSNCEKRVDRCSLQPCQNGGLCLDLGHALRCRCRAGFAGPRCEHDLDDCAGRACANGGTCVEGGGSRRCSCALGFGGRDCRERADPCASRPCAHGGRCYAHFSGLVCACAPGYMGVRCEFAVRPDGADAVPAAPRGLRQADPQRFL

The chains behind the UniProt entries cited, without tags or fusion partners. Where a name states a change or a piece, a line headed by the entry shows the natural chain unless it says otherwise.
UniProt O88671: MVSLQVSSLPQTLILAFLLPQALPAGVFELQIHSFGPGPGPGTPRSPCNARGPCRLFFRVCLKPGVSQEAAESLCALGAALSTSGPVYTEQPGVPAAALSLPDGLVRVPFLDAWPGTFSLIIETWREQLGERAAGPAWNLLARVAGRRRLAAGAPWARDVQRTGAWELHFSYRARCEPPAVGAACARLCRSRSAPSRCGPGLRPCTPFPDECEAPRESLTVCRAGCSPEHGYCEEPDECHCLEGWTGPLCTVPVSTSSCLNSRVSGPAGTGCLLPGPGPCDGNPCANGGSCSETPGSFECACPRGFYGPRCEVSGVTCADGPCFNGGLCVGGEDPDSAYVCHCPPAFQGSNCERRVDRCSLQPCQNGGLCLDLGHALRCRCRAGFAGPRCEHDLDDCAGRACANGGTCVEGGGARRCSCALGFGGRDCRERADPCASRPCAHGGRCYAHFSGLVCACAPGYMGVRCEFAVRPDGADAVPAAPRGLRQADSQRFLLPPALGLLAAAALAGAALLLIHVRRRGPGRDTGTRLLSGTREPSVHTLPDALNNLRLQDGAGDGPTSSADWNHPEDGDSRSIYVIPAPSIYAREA

[2] = molecular target: Rat DLL3 full-length protein on CHO-s cells (rat) (UniProt O88671); experiment: FACS on RatDLL3/CHO-s cells

B1: Hu6 (antibody, human IgG1, kappa, V domains shown)
VH: EVQLVQSGSELKKPGASVKVSCKASGYTFTDYYMNWVRQAPGQGLEWMGIINPYSGVTIYNHKFKGRFALSVDKSSNTAYLQISSLKAEDTAVYYCARQDSLLDYAMDYWGQGTTVTVSS
VL: DIQMTQSPSSLSASVGDRVTITCHASQGISGNMGWLQQKPGKAPKGLIYHGANLEDGVPSRFSGSGSGADYTLTISSLQPEDFADYYCVQYAQFPYTFGGGTKVEIKR
notes: also called hAb6L4H12
- binding [1]: binds
- binding [2]: binds

— patent publication US20250057968A1, “ANTI-DLL3 ANTIBODY AND PHARMACEUTICAL USE THEREOF, AND ANTIBODY-DRUG CONJUGATE CONTAINING ANTI-DLL3 ANTIBODY” (Jiangsu Hengrui Pharmaceuticals Co., Ltd., priority 2021, published 2025)
